{"source": "PubChem BioAssay AID1904 (GNF, 2009)", "assay": "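Knockdowns that alter circadian period or oscillation amplitude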 (follow-up of hits)", "system": "human U2OS osteosarcoma cells stably expressing a destabilised luciferase driven by the Bmal1 promoter", "knock-down reagent": "siRNA pair against human genes, 12.5 nM (two siRNAs, 0.5 pmol each, per well)", "timing": "about 3 days after transfection, then luminescence recorded for about 4 days", "measured": "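Period and amplitude fitted from detrended luminescence traces taken every 2 hours; duplicate wells averaged, compared with the screen mean and grouped into phenotype classes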", "hit rule": "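Active when retesting with individual siRNAs reproduced the period or amplitude change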", "meaning of the calls": "active = confirmed by single siRNAs; inactive = not confirmed", "note": "Only reagents picked out of a larger screen are listed. 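Lists only primary-screen hits; phenotype classes come from fitted traces, and the underlying luminescence values are not given.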 Reagents against one gene are numbered here. Reagent sequences are not shown."}
{"Gene": "OPN5", "reagent": 1, "clock phenotype class": "longer clock period; seen with two independent siRNA pairs for the gene", "confirmed with single siRNAs": "phenotype reproduced by individual siRNAs", "Outcome": "active"}
{"Gene": "OPN5", "reagent": 2, "clock phenotype class": "longer clock period; seen with two independent siRNA pairs for the gene", "confirmed with single siRNAs": "phenotype reproduced by individual siRNAs", "Outcome": "active"}
{"Gene": "OPN5", "reagent": 3, "clock phenotype class": "longer clock period; seen with two independent siRNA pairs for the gene", "confirmed with single siRNAs": "phenotype reproduced by individual siRNAs", "Outcome": "active"}
{"Gene": "OPN5", "reagent": 4, "clock phenotype class": "longer clock period; seen with two independent siRNA pairs for the gene", "confirmed with single siRNAs": "phenotype reproduced by individual siRNAs", "Outcome": "active"}
{"Gene": "PAPOLB", "reagent": 1, "clock phenotype class": "longer clock period; seen with two independent siRNA pairs for the gene", "confirmed with single siRNAs": "phenotype reproduced by individual siRNAs", "Outcome": "active"}
{"Gene": "PAPOLB", "reagent": 2, "clock phenotype class": "longer clock period; seen with two independent siRNA pairs for the gene", "confirmed with single siRNAs": "phenotype reproduced by individual siRNAs", "Outcome": "active"}
{"Gene": "BTNL2", "reagent": 1, "clock phenotype class": "higher rhythm amplitude; seen with one siRNA pair in duplicate wells", "confirmed with single siRNAs": "phenotype not reproduced by individual siRNAs", "Outcome": "inconclusive"}
{"Gene": "BTNL2", "reagent": 2, "clock phenotype class": "higher rhythm amplitude; seen with one siRNA pair in duplicate wells", "confirmed with single siRNAs": "phenotype not reproduced by individual siRNAs", "Outcome": "inconclusive"}
{"Gene": "LHX1", "reagent": 1, "clock phenotype class": "longer clock period; seen with two independent siRNA pairs for the gene", "confirmed with single siRNAs": "phenotype reproduced by individual siRNAs", "Outcome": "active"}
{"Gene": "LHX1", "reagent": 2, "clock phenotype class": "longer clock period; seen with two independent siRNA pairs for the gene", "confirmed with single siRNAs": "phenotype reproduced by individual siRNAs", "Outcome": "active"}
{"Gene": "TMSNB", "reagent": 1, "clock phenotype class": "shorter clock period; seen with two independent siRNA pairs for the gene", "confirmed with single siRNAs": "phenotype not reproduced by individual siRNAs", "Outcome": "inconclusive"}
{"Gene": "TMSNB", "reagent": 2, "clock phenotype class": "shorter clock period; seen with two independent siRNA pairs for the gene", "confirmed with single siRNAs": "phenotype not reproduced by individual siRNAs", "Outcome": "inconclusive"}
{"Gene": "FLJ22457", "reagent": 1, "clock phenotype class": "higher rhythm amplitude; seen with one siRNA pair in duplicate wells", "confirmed with single siRNAs": "phenotype reproduced by individual siRNAs", "Outcome": "active"}
{"Gene": "FLJ22457", "reagent": 2, "clock phenotype class": "higher rhythm amplitude; seen with one siRNA pair in duplicate wells", "confirmed with single siRNAs": "phenotype reproduced by individual siRNAs", "Outcome": "active"}
{"Gene": "KPNA4", "reagent": 1, "clock phenotype class": "longer clock period; seen with two independent siRNA pairs for the gene", "confirmed with single siRNAs": "phenotype reproduced by individual siRNAs", "Outcome": "active"}
{"Gene": "KPNA4", "reagent": 2, "clock phenotype class": "longer clock period; seen with two independent siRNA pairs for the gene", "confirmed with single siRNAs": "phenotype reproduced by individual siRNAs", "Outcome": "active"}
{"Gene": "LPHN1", "reagent": 1, "clock phenotype class": "longer clock period; seen with two independent siRNA pairs for the gene", "confirmed with single siRNAs": "phenotype reproduced by individual siRNAs", "Outcome": "active"}
{"Gene": "LPHN1", "reagent": 2, "clock phenotype class": "longer clock period; seen with two independent siRNA pairs for the gene", "confirmed with single siRNAs": "phenotype reproduced by individual siRNAs", "Outcome": "active"}
{"Gene": "DUSP8", "reagent": 1, "clock phenotype class": "higher rhythm amplitude; seen with two independent siRNA pairs for the gene", "confirmed with single siRNAs": "phenotype reproduced by individual siRNAs", "Outcome": "active"}
{"Gene": "DUSP8", "reagent": 2, "clock phenotype class": "higher rhythm amplitude; seen with two independent siRNA pairs for the gene", "confirmed with single siRNAs": "phenotype reproduced by individual siRNAs", "Outcome": "active"}
{"Gene": "C6orf89", "reagent": 1, "clock phenotype class": "shorter clock period; seen with two independent siRNA pairs for the gene", "confirmed with single siRNAs": "phenotype reproduced by individual siRNAs", "Outcome": "active"}
{"Gene": "C6orf89", "reagent": 2, "clock phenotype class": "shorter clock period; seen with two independent siRNA pairs for the gene", "confirmed with single siRNAs": "phenotype reproduced by individual siRNAs", "Outcome": "active"}
{"Gene": "PKLR", "reagent": 1, "clock phenotype class": "longer clock period; seen with two independent siRNA pairs for the gene", "confirmed with single siRNAs": "phenotype reproduced by individual siRNAs", "Outcome": "active"}
{"Gene": "PKLR", "reagent": 2, "clock phenotype class": "longer clock period; seen with two independent siRNA pairs for the gene", "confirmed with single siRNAs": "phenotype reproduced by individual siRNAs", "Outcome": "active"}
{"Gene": "SLC7A13", "reagent": 1, "clock phenotype class": "longer clock period; seen with two independent siRNA pairs for the gene", "confirmed with single siRNAs": "not retested with individual siRNAs"}
{"Gene": "SLC7A13", "reagent": 2, "clock phenotype class": "longer clock period; seen with two independent siRNA pairs for the gene", "confirmed with single siRNAs": "not retested with individual siRNAs"}
{"Gene": "RING1", "reagent": 1, "clock phenotype class": "longer clock period; seen with two independent siRNA pairs for the gene", "confirmed with single siRNAs": "phenotype reproduced by individual siRNAs", "Outcome": "active"}
{"Gene": "RING1", "reagent": 2, "clock phenotype class": "longer clock period; seen with two independent siRNA pairs for the gene", "confirmed with single siRNAs": "phenotype reproduced by individual siRNAs", "Outcome": "active"}
{"Gene": "RCV1", "reagent": 1, "clock phenotype class": "shorter clock period; seen with two independent siRNA pairs for the gene", "confirmed with single siRNAs": "phenotype reproduced by individual siRNAs", "Outcome": "active"}
{"Gene": "RCV1", "reagent": 2, "clock phenotype class": "shorter clock period; seen with two independent siRNA pairs for the gene", "confirmed with single siRNAs": "phenotype reproduced by individual siRNAs", "Outcome": "active"}
{"Gene": "GJB7", "reagent": 1, "clock phenotype class": "longer clock period; seen with two independent siRNA pairs for the gene", "confirmed with single siRNAs": "phenotype reproduced by individual siRNAs", "Outcome": "active"}
{"Gene": "PRPF4", "reagent": 1, "clock phenotype class": "longer clock period; seen with two independent siRNA pairs for the gene", "confirmed with single siRNAs": "phenotype reproduced by individual siRNAs", "Outcome": "active"}
{"Gene": "PRPF4", "reagent": 2, "clock phenotype class": "longer clock period; seen with two independent siRNA pairs for the gene", "confirmed with single siRNAs": "phenotype reproduced by individual siRNAs", "Outcome": "active"}
{"Gene": "ZNF261", "reagent": 1, "clock phenotype class": "longer clock period; seen with two independent siRNA pairs for the gene", "confirmed with single siRNAs": "phenotype reproduced by individual siRNAs", "Outcome": "active"}
{"Gene": "PFKP", "reagent": 1, "clock phenotype class": "shorter clock period; seen with one siRNA pair in duplicate wells", "confirmed with single siRNAs": "phenotype reproduced by individual siRNAs", "Outcome": "active"}
{"Gene": "PFKP", "reagent": 2, "clock phenotype class": "shorter clock period; seen with one siRNA pair in duplicate wells", "confirmed with single siRNAs": "phenotype reproduced by individual siRNAs", "Outcome": "active"}
{"Gene": "BRCA2", "reagent": 1, "clock phenotype class": "higher rhythm amplitude; seen with two independent siRNA pairs for the gene", "confirmed with single siRNAs": "phenotype reproduced by individual siRNAs", "Outcome": "active"}
{"Gene": "BRCA2", "reagent": 2, "clock phenotype class": "higher rhythm amplitude; seen with two independent siRNA pairs for the gene", "confirmed with single siRNAs": "phenotype reproduced by individual siRNAs", "Outcome": "active"}
{"Gene": "FLJ39369", "reagent": 1, "clock phenotype class": "longer clock period; seen with two independent siRNA pairs for the gene", "confirmed with single siRNAs": "phenotype reproduced by individual siRNAs", "Outcome": "active"}
{"Gene": "FLJ39369", "reagent": 2, "clock phenotype class": "longer clock period; seen with two independent siRNA pairs for the gene", "confirmed with single siRNAs": "phenotype reproduced by individual siRNAs", "Outcome": "active"}

Just “clock phenotype class” (7 entries from above):
PRPF4 #2	longer clock period; seen with two independent siRNA pairs for the gene
ZNF261	longer clock period; seen with two independent siRNA pairs for the gene
PFKP #1	shorter clock period; seen with one siRNA pair in duplicate wells
PFKP #2	shorter clock period; seen with one siRNA pair in duplicate wells
BRCA2 #1	higher rhythm amplitude; seen with two independent siRNA pairs for the gene
BRCA2 #2	higher rhythm amplitude; seen with two independent siRNA pairs for the gene
FLJ39369 #1	longer clock period; seen with two independent siRNA pairs for the gene
